# Reference: the supplement of paper PMC10338343
# ± gives the standard deviation. This is a selection; strong and weak results do not stand in their true shares. The uncertainty is large for many entries.
# Tested on: EfPiwi piRISC loaded with piRNA #1 (26 nt)
# Experiment: pre-steady-state target cleavage rate (min^-1); guide: piRNA #1 5'p-UGAGGUAGUAGGUUGUAUAGUAUCCA; MIWI and MILI are mouse PIWI proteins and EfPiwi is from a freshwater sponge; tags in brackets are library labels; higher = faster piRNA-guided slicing of the target
# Details: auxiliary factor: 500 nM Ephydatia muelleri Gtsf1
# How it was run: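 Cleave-'n-Seq used a transcribed, DNA-blocked target RNA library at 0.1 nM and active affinity-purified piRISC with one synthetic guide at 1 nM, with or without 500 nM GTSF1 partner protein, in HEPES–potassium acetate buffer at 33 °C for 0–8 or 0–960 min. Uncleaved targets were sequenced and normalised to depth and to weakly complementary targets, and three trials were pooled with k3 capped at 0.0001 min^-1. The pre-steady-state cleavage rate was estimated by a burst-and-steady-state fit.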
row,Sequence,pre-steady-state target cleavage rate
1,GGAGACCUAUGAUAUCAACCUACAACCUCA,0.000767 ± 0.01
2,GGAGACGAUACUUUACAACCUACAACCUCA,0.0011 ± 0.0019
3,GGAGACCUAUCUAUACAACCUACGUACCUCA,0.00113 ± 0.0086
4,GGAGACCUAUGUAUACAACCUACUACUUCA,0.00207 ± 0.0045
5,GGAGACCUAUGAUUAGCAACCUACUACCUCA,0.00184 ± 0.0048
6,GGAGACCAUUCUAUACAACGUACUACCUCA,0.00402 ± 0.0025
7,GGAGACCUAUCUAUACAACCUAUCUACCUCA,0.000956 ± 0.0066
8,GGAGACCUAUGAUAUGAAACCUACUACCUCA,0.000642 ± 0.0078
9,GGAGAGGAUACUUUACAACCUACUACCACA,0.0019 ± 0.0011
10,GGAGACCUAUGUAUACAACCUACAACGUCA,0.000497 ± 0.01
11,GGAGACCUUACUUUACAACGUACUACCUCA,0.00258 ± 0.0039
12,GGAGAGGAUACUAUUCAAGCUACUACCUCA,0.00323 ± 0.002
13,GGAGACCUAACUAUACAACGUACUACCUGA,0.00227 ± 0.0037
14,GGAGACCUUACUAUACUAACCUACUACCUCA,0.00212 ± 0.0041
15,GGAGACCAUAGUAUACAACCUUCUACCUCA,0.00207 ± 0.0035
16,GGAGACGAUUCUAUACAACGUACUACCUCA,0.00356 ± 0.0021
17,GGAGAGGAUACUAGACAACCUACUACCUCA,0.0121 ± 0.0055
18,GGAGUGGUUACUUUACAACCUACUACCUCA,0.00342 ± 0.0031
19,GGAGAGGAUACUAUACAACCUACAUCCUCA,0.00358 ± 0.0016
20,GGAGACGAUACUAUACAACUACUACCUCA,0.00742 ± 0.0033
21,GGAGUGCGAUACUAUACAACCUACUACCUCA,0.136 ± 0.044
22,GGAGACCUUAGUAAACAACCUACUACCUCA,0.00381 ± 0.0043
23,GGAGAGGAUACUAUACAGCCUACUACCUCA,0.105 ± 0.04
24,GGAGACGAAACUUUACAACCUACUACCUCA,0.0147 ± 0.0064

# 2 entries drawn at random from the list so far, as already listed:
row,Sequence,pre-steady-state target cleavage rate
8,GGAGACCUAUGAUAUGAAACCUACUACCUCA,0.000642 ± 0.0078
21,GGAGUGCGAUACUAUACAACCUACUACCUCA,0.136 ± 0.044
